Source: EPA's CvTdb concentration-time database
Further values from the same series stand in other lists.

Tests used:
Assay in all cases: concentration in plasma after dosing
[1] = tested on: Mouse; settings: 1.5 h; dosed: 2-Hydroxy-4-methoxybenzophenone; 50 mg/kg; iv; Male; B6C3F1
[2] = tested on: Rat; settings: 5 min; dosed: 2-Hydroxy-4-methoxybenzophenone; 8 mg/kg; iv; Female; F344
[3] = tested on: Rat; settings: 10 min; dosed: 2-Hydroxy-4-methoxybenzophenone; 8 mg/kg; iv; Female; F344
[4] = tested on: Rat; settings: 0.25 h; dosed: 2-Hydroxy-4-methoxybenzophenone; 8 mg/kg; iv; Male; F344
[5] = tested on: Mouse; settings: 0.5 h; dosed: 2-Hydroxy-4-methoxybenzophenone; 250 mg/kg; oral; Male; B6C3F1
[6] = tested on: Mouse; settings: 1.5 h; dosed: 2-Hydroxy-4-methoxybenzophenone; 250 mg/kg; oral; Male; B6C3F1
[7] = tested on: Rat; settings: 10 min; dosed: 2-Hydroxy-4-methoxybenzophenone; 8 mg/kg; iv; Male; F344
[8] = tested on: Mouse; settings: 1 h; dosed: 2-Hydroxy-4-methoxybenzophenone; 250 mg/kg; oral; Male; B6C3F1
[9] = tested on: Mouse; settings: 6 h; dosed: 2-Hydroxy-4-methoxybenzophenone; 250 mg/kg; oral; Female; B6C3F1
[10] = tested on: Mouse; settings: 7 h; dosed: 2-Hydroxy-4-methoxybenzophenone; 250 mg/kg; oral; Female; B6C3F1
[11] = tested on: Mouse; settings: 6 h; dosed: 2-Hydroxy-4-methoxybenzophenone; 50 mg/kg; iv; Male; B6C3F1
[12] = tested on: Mouse; settings: 6 h; dosed: 2-Hydroxy-4-methoxybenzophenone; 50 mg/kg; iv; Male; B6C3F1; remark: listed apart in the source
[13] = tested on: Rat; settings: 16 h; dosed: 2-Hydroxy-4-methoxybenzophenone; 500 mg/kg; oral; Female; F344
[14] = tested on: Rat; settings: 0.25 h; dosed: 2-Hydroxy-4-methoxybenzophenone; 8 mg/kg; iv; Male; F344; remark: listed apart in the source
[15] = tested on: Mouse; settings: 8 h; dosed: 2-Hydroxy-4-methoxybenzophenone; 500 mg/kg; oral; Female; B6C3F1
[16] = tested on: Mouse; settings: 4 h; dosed: 2-Hydroxy-4-methoxybenzophenone; 50 mg/kg; iv; Female; B6C3F1
[17] = tested on: Rat; settings: dosed: 2-Hydroxy-4-methoxybenzophenone, 8 mg/kg, iv, Female, F344
[18] = tested on: Mouse; settings: 6 h; dosed: 2-Hydroxy-4-methoxybenzophenone; 50 mg/kg; iv; Male; B6C3F1; remark: listed apart in the source
[19] = tested on: Rat; settings: dosed: 2-Hydroxy-4-methoxybenzophenone, 250 mg/kg, oral, Male, F344
[20] = tested on: Rat; settings: dosed: 2-Hydroxy-4-methoxybenzophenone, 8 mg/kg, iv, Male, F344
[21] = tested on: Mouse; settings: 6 h; dosed: 2-Hydroxy-4-methoxybenzophenone; 500 mg/kg; oral; Female; B6C3F1
[22] = tested on: Mouse; settings: 1.5 h; dosed: 2-Hydroxy-4-methoxybenzophenone; 50 mg/kg; iv; Female; B6C3F1
[23] = tested on: Mouse; settings: 1 h; dosed: 2-Hydroxy-4-methoxybenzophenone; 250 mg/kg; oral; Female; B6C3F1
[24] = tested on: Mouse; settings: 5 h; dosed: 2-Hydroxy-4-methoxybenzophenone; 250 mg/kg; oral; Female; B6C3F1
[25] = tested on: Mouse; settings: 8 h; dosed: 2-Hydroxy-4-methoxybenzophenone; 50 mg/kg; iv; Male; B6C3F1
[26] = tested on: Rat; settings: dosed: 2-Hydroxy-4-methoxybenzophenone, 250 mg/kg, oral, Male, F344; remark: listed apart in the source
[27] = tested on: Rat; settings: dosed: 2-Hydroxy-4-methoxybenzophenone, 500 mg/kg, oral, Male, F344
[28] = tested on: Mouse; settings: 8 h; dosed: 2-Hydroxy-4-methoxybenzophenone; 50 mg/kg; iv; Male; B6C3F1; remark: listed apart in the source
[29] = tested on: Rat; settings: dosed: 2-Hydroxy-4-methoxybenzophenone, 500 mg/kg, oral, Male, F344; remark: listed apart in the source
[30] = tested on: Rat; settings: dosed: 2-Hydroxy-4-methoxybenzophenone, 500 mg/kg, oral, Male, F344; remark: listed apart in the source
[31] = tested on: Rat; settings: 1.5 h; dosed: Perfluorohexanoic Acid; 40 mg/kg; Male; F344
[32] = tested on: Rat; settings: dosed: Perfluorohexanoic Acid, 80 mg/kg, oral, Female, Harlan Sprague Dawley
[33] = tested on: Rat; settings: dosed: Perfluorohexanoic Acid, 160 mg/kg, oral, Female, Harlan Sprague Dawley
[34] = tested on: Rat; settings: 1 h; dosed: Perfluorohexanoic Acid; 40 mg/kg; oral; Male; Harlan Sprague Dawley
[35] = tested on: Rat; settings: dosed: Perfluorohexanoic Acid, 160 mg/kg, oral, Male, Harlan Sprague Dawley
[36] = tested on: Rat; settings: 1 h; dosed: Perfluorohexanoic Acid; 80 mg/kg; oral; Female; Harlan Sprague Dawley
[37] = tested on: Rat; settings: 0.75 h; dosed: Perfluorohexanoic Acid; 80 mg/kg; oral; Female; Harlan Sprague Dawley
[38] = tested on: Rat; settings: dosed: Perfluorohexanoic Acid, 40 mg/kg, Male, F344

O=C(c1ccccc1)c1ccc(O)cc1O [2,4-Dihydroxybenzophenone]
Settings	concentration in plasma [µg/mL]
[1]	0.323
[2]	0.0425
[3]	0.133
[4]	0.0643
[5]	1.12
[6]	0.539
[7]	0.0622
[8]	0.596
[9]	0.0839
[10]	0.0341
[11]	0.136
[12]	0.14
[13]	0.12
[14]	0.0528
[15]	0.131
[16]	0.0339

COc1ccc(C(=O)c2ccccc2)c(O)c1 [2-Hydroxy-4-methoxybenzophenone]
Settings	concentration in plasma [µg/mL]
[17], 1.5 h	0.0943
[17], 8 h	0.0119
[19], 2 h	0.103
[19], 5 min	0.0592
[20], 0.5 h	0.593
[20], 8 h	0.0163
[26], 1 h	0.25
[26], 6 h	0.0468
[27], 0.5 h	0.117
[27], 12 h	0.0357
[29], 0.5 h	0.163
[29], 12 h	0.0465
[30], 1 h	2.35
[30], 8 h	0.274

Settings	concentration in plasma [µg/mL]
[18]	0.0548
[21]	0.574
[22]	0.381
[23]	0.118
[24]	0.0292
[25]	0.0143
[28]	0.0205

O=C(O)C(F)(F)C(F)(F)C(F)(F)C(F)(F)C(F)(F)F [Perfluorohexanoic Acid]
Settings	concentration in plasma
[31]	6320 ng/mL
[34]	27100 ng/mL
[36]	78 µg/mL
[37]	42400 ng/mL

Settings	concentration in plasma
[32], 0 h	28.8 ng/mL
[32], 0.75 h	76800 ng/mL
[33], 3 h	154 µg/mL
[33], 5 min	74.2 µg/mL
[35], 0.5 h	247 µg/mL
[35], 9 h	8.38 µg/mL
[38], 0.25 h	162 µg/mL
[38], 6 h	0.131 µg/mL
